Results deposited as PubChem BioAssay AID1224828 (NIAID, 2016).
The deposit covers about 17,000 reagents; this is a part drawn at random. Over the whole deposit, 762 (4.5%) were called active. 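Active calls include both raised and lowered p65 entry, mostly lowered; wells with fewer than 50 cells lack a z-score.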 Raw values vary from plate to plate and are shown uncorrected.

Purpose: 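Knock-downs that increase or decrease LPS-induced p65 nuclear translocation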 (primary screen)
Cell system: mouse RAW264.7 G9 macrophage reporter cells (GFP-p65, Tnf promoter-mCherry)
Reagents: siRNA pool against mouse genes, 100 nM
Duration: 2 days siRNA transfection, then 40 min LPS before fixation
Challenge: LPS (Salmonella minnesota R595) at 10 ng/ml
Measured: 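Imaged p65 nuclear translocation ratio, normalised to the plate median, converted to robust z-scores and averaged across two replicates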
Scale: p65 translocation robust z-score: higher = more nuclear NF-kappaB p65 after LPS than the plate median; nuclear/cytoplasmic p65 ratio: higher = more nuclear NF-kappaB p65
Rule for the call: 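Called active when z exceeds 3.3 or falls under -1.56 (median of Tlr4 controls), giving activity score of at least 50; no calls for control wells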
Calls: active = hit (p65 shift raised or lowered); inactive = no clear change

no.	gene	p65 translocation robust z-score	nuclear/cytoplasmic p65 ratio, rep 1	nuclear/cytoplasmic p65 ratio, rep 2	low cell count flag	outcome
1	Vmn1r65	0.48	1.43	1.3	enough cells to score	inactive
2	Kcnj12	0.17	1.59	1.44	enough cells to score	inactive
3	Mycbp2		1.32	1.26	fewer than 50 cells per well; well left out of scoring	inactive
4	Sipa1l1	0.29	1.4	1.33	enough cells to score	inactive
5	Or9r3		1.44	1.12	fewer than 50 cells per well; well left out of scoring	inactive
6	Ing4		1.18	1.3	fewer than 50 cells per well; well left out of scoring	inactive
7	Traf6	-1.44	1.33	1.29	enough cells to score	inactive
8	Zbtb8a	-1.23	1.24	1.3	enough cells to score	inactive

Next part (3 carried over from the part before).
no.	gene	p65 translocation robust z-score	nuclear/cytoplasmic p65 ratio, rep 1	nuclear/cytoplasmic p65 ratio, rep 2	low cell count flag	outcome
6	Ing4		1.18	1.3	fewer than 50 cells per well; well left out of scoring	inactive
7	Traf6	-1.44	1.33	1.29	enough cells to score	inactive
8	Zbtb8a	-1.23	1.24	1.3	enough cells to score	inactive
9	Itpk1	-0.94	1.4	1.26	enough cells to score	inactive
10	Plxnc1	-1.29	1.31	1.25	enough cells to score	inactive
11	Ccrl2	-0.98	1.37	1.43	enough cells to score	inactive
12	Rer1		1.28	1.99	fewer than 50 cells per well; well left out of scoring	inactive
13	C1qbp	0.2	1.55	1.45	enough cells to score	inactive
14	Sphk2	-0.44	1.72	1.32	enough cells to score	inactive
15	Mrgprb8	1.47	2.06	1.78	enough cells to score	inactive
16	Dgka	-0.11	1.65	1.39	enough cells to score	inactive
17	Imp4	1.23	1.76	1.72	enough cells to score	inactive
18	Galnt5		1.21	1.13	fewer than 50 cells per well; well left out of scoring	inactive
19	Gprc5a	0.37	1.61	1.53	enough cells to score	inactive
20	Casp14	-0.68	1.51	1.52	enough cells to score	inactive
21	Slc35h1		1.17	1.33	fewer than 50 cells per well; well left out of scoring	inactive
22	Pdcd6ip	-0.53	1.4	1.32	enough cells to score	inactive
23	Acrv1	0.29	1.68	1.7	enough cells to score	inactive
24	Wnt5a	0.39	1.58	1.55	enough cells to score	inactive
